Experimental data published in patent US4285858A, “Vasopressin analogs” (Mt. Sinai School of Medicine of the City University of N.Y., priority 1979, dated 1981).
Not every detail of the peptide structures is certain; ends, links or a residue may be inferred. *1 amine or outer side, *2 acyl side, *3 side chain or, on linkers, in order; H or OH if unused. Where a SMILES comes first, the peptide text is derived from it. Bridges are numbered along the chain shown (N, C = ends). [ ]: non-standard residue; d: D form. X1 = O=C(CCC[*:2])[*:1]

Tests used:
[1] = test system: anesthetized rats; assay: Pressor effect by intravenous injection into anesthetized rats; assay type: in vivo, rat; details: mean
Description: (§1) The vasopressin analogs of this invention were tested for antidiuretic and pressor effects by intravenous injection into anesthetized rats using techniques described in Cort, J. H., Schuck, O., Stribrna, J. Skopkova, J., Jost. K., Mulder, J. L., Kidney Internat. 8:292,1975. The increase in Factor VIII after administration were analyzed in male canine citrated plasma. The Factor VIII were estimated by both the classical clotting assay (F-VIII(C)) and by radioimmunoassay (F-VIII(RIA)), both described in Prowse, C. V., Sas, G., Gader, A. M. A., Cort, J. H., Cash, J. D., Brit. H. Haematol. 41:437, 1979. The vasopressin analogs are suitable for administration to mammals by intravenous or subcutaneous injection containing 100 μg to 1 mg peptide/ml. The intravenous or subcutaneous doses would be in the range of 0.02 to 1.0 μg/kg. The intranasal dose range would be ten times the former dose.
(§2) The vasopressin analogs were injected intravenously into normal male dogs anesthetized with sodium pentothal. Blood was withdrawn from each dog after 30, 60 and 120 minutes and analyzed for F-VIII. Rats were also rested for antidiuretic and pressor activity due to the vasopressin analogs of this invention.

[2] = test system: Factor VIII; assay: Factor VIII classical clotting assay (F-VIII(C)) on blood of dogs after intravenous injection; assay type: in vivo; details: dog, i.v., pre-injection blood = 100%; for F-VIII 30' (c): 30 minutes; for F-VIII 60' (c): 60 minutes; for F-VIII 120' (c): 120 minutes
Description: (§3) K., Mulder, J. L., Kidney Internat. 8:292,1975. The increase in Factor VIII after administration were analyzed in male canine citrated plasma. The Factor VIII were estimated by both the classical clotting assay (F-VIII(C)) and by radioimmunoassay (F-VIII(RIA)), both described in […]., Cort, J. H., Cash, J. D., Brit. H. Haematol. 41:437, 1979. […] The intravenous or subcutaneous doses would be in the range of 0.02 to 1.0 μg/kg. The intranasal dose range would be ten times the former dose. […] The compounds from Examples 4-8 were tested by intravenously injecting the compounds in physiological saline into a normal dog which was anesthetized using sodium pentothal. Blood samples were withdrawn from each dog after 30, 60 and 120 minutes and tested. […] The F-VIII factor level was also determined by radioimmunoassay(RIA). The results of these tests are reported in Table I. Desmopressin (10 μg/kg) was used as a reference injection peptide.

[3] = test system: Factor VIII; assay: Factor VIII radioimmunoassay (F-VIII(RIA)) on blood of dogs after intravenous injection; assay type: in vivo; details: dog, i.v.; for F-VIII 30' (RIA): 30 minutes; for F-VIII 60' (RIA): 60 minutes; for F-VIII 120' (RIA): 120 minutes
Description: as §3

[4] = test system: anesthetized rats; assay: Antidiuretic effect by intravenous injection into anesthetized rats; assay type: in vivo, rat; details: mean
Description: as §1, §2

## C[C@@H](NC(=O)[C@H](CCCNC(=N)N)NC(=O)[C@@H]1CCCN1C(=O)[C@@H]1CSCCCC(=O)N[C@@H](Cc2ccc(O)cc2)C(=O)N[C@@H](Cc2ccccc2)C(=O)N[C@@H](CCC(N)=O)C(=O)N[C@@H](CC(N)=O)C(=O)N1)C(N)=O [Example 6, (1-desamino-1 monocarba-[9-D-Ala-NH2]-arginine-vasopressin] (YFQNCPR[dA]-NH2; linker N-5 via X1)
[1]
  Pressor Potencies (peak): 0.18 IU/mg
[2]; 5 μg/kg, hemophiliac dog plasma = 0%
  F-VIII 30' (c): 135%
[2]; 5 μg/kg
  F-VIII 60' (c): 185%
  F-VIII 120' (c): 190%
[2]; 10 μg/kg
  F-VIII 30' (c): 210%
  F-VIII 60' (c): 260%
  F-VIII 120' (c): 265%
[3]; 5 μg/kg
  F-VIII 30' (RIA): 120%
  F-VIII 60' (RIA): 135%
  F-VIII 120' (RIA): 145%
[3]; 10 μg/kg
  F-VIII 30' (RIA): 130%
  F-VIII 60' (RIA): 140%
  F-VIII 120' (RIA): 165%
[4]
  Antidiuretic Potencies (peak): 1.9 IU/mg
